In PMC11189624 one finds binding data, which are given here for two molecules.

No constants are given. Whether binding was seen depends on the method and setting. A result given as binding can be weak or reduced; the word gives no strength. Tags and fused reporters may be left off the sequences shown.

Test [1] deals with Flag-Myo5a-MTD (residues 1106–1467), bacterial-expressed. Kind of test: pull-down; GST pulldown of GST-Mlph-ABD and Flag-Mlph-EFBD in the presence of Flag-Myo5a-MTD; Western blot with anti-Flag; both purified. (Immunoblotting shows a protein as a band on a membrane.)
Test [2] has the same target. Kind of test: pull-down; Flag pulldown: 0.5 uM Flag-Myo5a-MTD with 1 uM GST-tagged Mlph truncations, anti-FLAG M2 agarose, Pulldown Buffer I, 4 °C, 2 hr; eluted with FLAG peptide; SDS-PAGE with CBB staining; both purified.

B1: Flag-Mlph-EFBD (residues 241–400) (domain or fragment, UniProt Q91V27 241-400)
chain: EGLEETGARALGCRPSPEVQPCSPLPSGEDAHAELDSPAASCKSAFGTTAMPGTDDVRGKHLPSQYLADVDTSDEDSIQGPRAASQHSKRRARTVPETQILELNKRMSAVEHLLVHLENTVLPPSAQEPTVETHPSADTEEETLRRRLEELTSNISGSST
Take B1: in test [1], the binding result is recorded as “binds”.

B2: GST-Mlph-ΔRBD (residues 148–590) (domain or fragment, UniProt Q91V27 148-590)
chain: GGGSEPSLEEGNGDSEQTDEDGDLDTEARDQPLNSKKKKRLLSFRDVDFEEDSDHLVQPCSQTLGLSSVPESAHSLQSLSGEPYSEDTTSLEPEGLEETGARALGCRPSPEVQPCSPLPSGEDAHAELDSPAASCKSAFGTTAMPGTDDVRGKHLPSQYLADVDTSDEDSIQGPRAASQHSKRRARTVPETQILELNKRMSAVEHLLVHLENTVLPPSAQEPTVETHPSADTEEETLRRRLEELTSNISGSSTSSEDETKPDGTFLGGSPKVCTDTGHMETQERNPRSPGNPARPTKSTDEELSEMEDRVAMTASEVQQAESEISDIESRIAALRAAGLTVKPSGKPRRKSGIPIFLPRVTEKLDRIPKTPPADPDDQAKMPKATTAVPSLLRRKYSPSSQGVDSGSFDRKSVYRGSLTQRNPNGRRGTARHIFAKPVMAQQP
With B2, in test [2], the binding entry is on record as “binds”.
